Experimental data taken from PMC9527117.
These are yes or no findings as the source states them, for the method shown. In cells and extracts the contact can be indirect. Some results given as binding are weak or reduced against the parent protein; the word gives no strength.

The chains behind the UniProt entries cited, without tags or fusion partners.
UniProt Q2EJA0: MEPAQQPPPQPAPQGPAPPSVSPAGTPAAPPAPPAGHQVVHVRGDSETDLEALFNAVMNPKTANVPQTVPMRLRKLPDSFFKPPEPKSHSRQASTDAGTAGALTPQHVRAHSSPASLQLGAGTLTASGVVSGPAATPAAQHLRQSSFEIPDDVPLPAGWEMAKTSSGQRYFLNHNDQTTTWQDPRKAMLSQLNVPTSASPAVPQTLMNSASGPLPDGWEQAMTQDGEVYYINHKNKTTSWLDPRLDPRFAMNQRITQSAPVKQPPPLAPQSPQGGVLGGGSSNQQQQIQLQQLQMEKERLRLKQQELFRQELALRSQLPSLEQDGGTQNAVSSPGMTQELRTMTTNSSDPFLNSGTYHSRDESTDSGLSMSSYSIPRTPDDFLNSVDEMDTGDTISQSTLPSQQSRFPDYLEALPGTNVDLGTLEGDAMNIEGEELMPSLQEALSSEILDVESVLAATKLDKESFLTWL
UniProt P63104: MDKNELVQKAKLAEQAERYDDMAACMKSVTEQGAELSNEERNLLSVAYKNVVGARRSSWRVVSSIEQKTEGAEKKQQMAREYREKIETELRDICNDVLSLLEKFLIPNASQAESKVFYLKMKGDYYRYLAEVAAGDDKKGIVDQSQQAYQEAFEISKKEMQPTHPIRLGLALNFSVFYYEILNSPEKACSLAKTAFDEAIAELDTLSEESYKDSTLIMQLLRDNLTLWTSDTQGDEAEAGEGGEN

Molecular target: YAP phosphorylated at serine 127 (rat (endogenous in rat podocytes)) (UniProt Q2EJA0)
Assay: co-IP; rat podocytes after intervention with shGFP-sEVs or sh14-3-3ζ-sEVs; cell pellet in Co-IP buffer (Pierce), supernatant with the indicated primary antibodies at 4°C overnight, 30 μL protein A/G gel at 4°C for 4 h, 4 washes, western blot; which protein was precipitated is not told

14-3-3ζ (from UniProt P63104 1-245)
binding: binds
